No constants are given. Whether binding was seen depends on the method and setting. Binding seen in cells or lysates may run through a third protein. Some entries that bind do so weakly or less than the wild type. For some of these results: Sequences can lack the tags named with a protein.

Chains of the proteins cited; added tags and fusions are not shown.
UniProt Q8VE09: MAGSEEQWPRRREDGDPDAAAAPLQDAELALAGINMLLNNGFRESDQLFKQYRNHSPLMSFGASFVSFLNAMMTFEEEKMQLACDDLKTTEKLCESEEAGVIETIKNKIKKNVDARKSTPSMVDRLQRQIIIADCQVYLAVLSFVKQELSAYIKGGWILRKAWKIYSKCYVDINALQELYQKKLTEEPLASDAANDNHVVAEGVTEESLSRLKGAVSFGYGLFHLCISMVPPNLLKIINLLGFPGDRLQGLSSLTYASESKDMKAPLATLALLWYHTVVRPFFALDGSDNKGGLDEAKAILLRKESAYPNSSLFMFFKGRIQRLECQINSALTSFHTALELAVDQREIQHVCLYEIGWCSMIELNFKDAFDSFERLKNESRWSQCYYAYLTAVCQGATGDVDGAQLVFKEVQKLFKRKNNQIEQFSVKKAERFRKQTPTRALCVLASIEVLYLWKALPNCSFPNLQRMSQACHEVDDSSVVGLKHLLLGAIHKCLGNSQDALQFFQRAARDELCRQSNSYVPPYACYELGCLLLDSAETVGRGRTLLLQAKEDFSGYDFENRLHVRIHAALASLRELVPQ

Assay [1] has as its target FLAG-tagged mouse TTC39c (mouse) (UniProt Q8VE09). Kind of assay: co-IP; HEK293T lysates with FLAG-tagged TTC proteins mixed with mouse testis lysates, 2 h at 4°C, then anti-FLAG resin; lysis buffer 20 mM Tris-Cl pH 7.5, 100 mM KCl, 1% NP-40; immunoblotting.
Assay [2] deals with T1, GST-tagged mouse BBS7 (mouse) (UniProt Q8K2G4).
T1 sequence: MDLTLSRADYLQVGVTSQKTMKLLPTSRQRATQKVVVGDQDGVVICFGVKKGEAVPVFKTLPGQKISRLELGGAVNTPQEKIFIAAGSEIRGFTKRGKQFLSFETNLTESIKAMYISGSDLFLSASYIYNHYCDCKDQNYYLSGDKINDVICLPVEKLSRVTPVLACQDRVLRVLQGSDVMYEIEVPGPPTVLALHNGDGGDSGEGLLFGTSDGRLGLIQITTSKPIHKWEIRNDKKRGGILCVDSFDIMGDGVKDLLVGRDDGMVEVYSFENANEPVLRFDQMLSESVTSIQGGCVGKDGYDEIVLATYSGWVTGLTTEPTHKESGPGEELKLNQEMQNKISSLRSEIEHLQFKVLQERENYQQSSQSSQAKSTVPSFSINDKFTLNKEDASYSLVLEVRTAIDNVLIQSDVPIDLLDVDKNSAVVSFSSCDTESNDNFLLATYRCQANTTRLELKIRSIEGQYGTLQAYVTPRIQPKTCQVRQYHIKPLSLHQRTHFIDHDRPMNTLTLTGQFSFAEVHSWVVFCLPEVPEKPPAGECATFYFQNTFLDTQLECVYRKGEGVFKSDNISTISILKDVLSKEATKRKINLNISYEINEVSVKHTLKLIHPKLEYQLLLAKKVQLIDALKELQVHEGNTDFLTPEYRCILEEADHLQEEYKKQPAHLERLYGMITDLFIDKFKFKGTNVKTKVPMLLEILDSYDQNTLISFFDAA
In words: pull-down; GST-BBS7 on glutathione-agarose beads incubated with bacterial lysate containing His-tagged protein, 2 h at 4°C; wash 20 mM Tris-Cl pH 7.5, 150 mM KCl, 0.5% NP-40; western blotting; only the target purified. In general terms: In western blotting, separated proteins are transferred to a membrane and probed.

B1: IFT144 (protein, UniProt Q3UGF1 1-1341)
chain: MKRVFSLLEKSWLGAPIQFAWQKSSGNYLAVTGADYIVKIFDRHGQKRSEISLPGNCVTMDWDKDGDILAVIAEKSSCIYLWDANTNKTSQLDNGMRDQMSFLLWSKIGSFLAVGTIKGNLLIYNHQTSRKIPVLGKHTKKITCGCWNSENLLALGGEDKMITVSNQEGDTIRQTPVKSEPSDIKFSMSKTDERISSAENTISAVVGKKMLFLFHLNEPDNPVDLEFQQAYGNIVCYSWYGDGYIMIGFSRGTFLAISTHFPEVGQEIFKARDHKDNLTSVALSQTLNKAATCGDNCIKIHDLTELRDMYAIINLDDENKGLGTLSWTDDGQLLALSTQRGSLHVFLTKLPILGDACHTRIAYLTSLLEVTVANLIEGEPPITVSVDVEPTFVAVGLYHLAVGMNNRAWFYVLGENVVKKLKDVEYLGTVASICLHSDYAAALFEGKIQLHLIENEMLDAQEERETRLFPAVDDKCRILCHALTSDFLIYGTDTGIIHYFFIEDWQFVNDYRHPVGVKKLFPDPNGTRLVFIDEKSDGFVYCPVNDATYEIPDFSPTIKGVLWENWPMDKGVFIAYDDDKVYTYAFHKDTIQGSKVILAGSTKLPFSHKPLLLYNGELTCQTQSGKINSIYLSTHSFLGSMKDTEPTDLRQMLTQTLLLKRFSDAWDICKMLNDRTSWSELAKACLHHMEVEFAIRVSRTMGDVGTVMSLEQIKGIEDYNLLAGHLAMFTNDFNLAQDLYLASNCPVAALEMRRDLQHWDSALQLAKRLAPDQIPFISKEYAIQLEFTGDYVNALAHYEKGITGDNKEHDEVCLAGVAQMSIRMGDIRRGANQALKHPSRVLKRDCGAILENMKQFSEAAQLYEKGQYYDRAASVYIRCKNWAKVGELLPHVSSPKIHLQYAKAKEADGRYKEAVVAYENAKQWNSVIRIYLDHLNNPEKAVSIVRETQSLDGAKMVARFFLQLGDYGSAIQFLVLSKCNNEAFTLAQQHNKMEIYADIIGAEDTTNEDYQSIALYFEGEKRHFQAGKFFLLCGQYSRALKHFLKCPSSEDNVAIEMAIETVGQAKDELLTNQLIDHLMGESDGMPKDAKYLFRLYMALKQYREAARTAIIIAREEQSAGNYRNAHDVLFSMYAELKAQKIKIPSEMATNLMILHSYILVKIHVKSGDHMKGARMLIRVANNISKFPSHIVPILTSTVIECHRAGLKNSAFSFAAMLMRPEYRNKIDAKYKKKIEAMVRRPDTSETEEATTPCPFCQFLLPECELLCPGCKNNIPYCIATGRHMLKDDWTMCPHCGFPALYSEFKILLNSESTCPMCSERLNSSQLKKITDCSQYLRTEME
For B1, the binding entry in assay [1] was “binds weakly”.

B2: IFT139 (protein, UniProt Q0HA38 1-1315)
chain: MDSQGLKTLINYYCQERYYHHVLLVASEGMKKYSSDPVFRFYHAYGTLMEGKAQEALREFEAIKNKQDVSLCSLMALMYVHKMSPNPDREAILELDTKMKEQRKEAGRKALYHAGLFLWHIGRHDKAREYIDRMSKMPHDSNEGPILKAWLDITRGKEPYAKKALRYFEEGLQDGNDIFALLGKVLCLEIRQNYSGALETVSQIIVNFPSFLPAFEKKMKLQLALQDWDQTVETAQRLLLQDNHNVEALRMLALYYLCREGDVEKAATKLENLGNALDVMEPQNAQLFYKITLAFSRTCGRNQLILQKVQSFLEKAFSLTPQQAEIATELGYQMILQGKVKEAWKWYRTAMTLNESNISAVTGLIRCQLIEGQLQDADQQLEFFSEFQQSMGKSAELMYLHAVLATKKNNRQDEVINLLNDVVNTHFSHLEDLPLGIQYFEKLNPDFLLEVVTEYLNLCPIQPAGPGQPLSPVLRRCSSVLETIIRSVPGLPQAVFLMAKVKYLSGDTEAAYNNLQHCLEHSPSYAEAHLLMAQVYLSQDKVKLCSQSLELCLSYNFNVREYPLYHLIKAQSQKKMGEVAEAIKTLHMAMNLPGMRRSRASSKSKHRTEVDASHRLSIFLELVEVHRLNGEQHEAAKVLQDAIHEFSGTCEELRVTIANADLALAQGDTDRALSMLRNVTTEQPYFIEAKEKMADIYLKHRKEKMLYITCYREIAERMPSPRSFLLLGDAYMNIQEPEEAIVAYEQALNQNPKDGTLARKIGKALVKTHNYSKAITYYEAALKSGQQNCLCYDLAELLLRLKLYEKAEKVLQHSLAHEPVSELSALMVDGRSQVLLAKVYSKMERPSDAIAALQQARELQARILKRVQMEQPDAVPSQKHFAAEICAEIAKHSAAQRDYEKAITFYREALVHCETDSKIMLELAQLYLAQEDLDASLRHCALLLQRDQDNEPATMLMADLMFRKQDYEQAVYHLQQLLDRKPDNFMTLSRLIDLLRRCGKLEDVPRFFLMAEKHNSRTKLEPGFQYCKGLHFWYTGEPNDALRHFNKARKDSDWGQNALYNMIEICLNPDNETIGGEVFENLNGDLGTSPEKQESVQLAVRTAEKLLKELKPQTVQGRLQLRIMENCCLMATKQKSSVEQALNTFTEIAASEKDHIPALLGMATAYMILKQTPKARNQLKRIAKMPWNPIEAEDLEKSWLLLADIYIQSAKYDMAEELLKRCLCHNRSCCKAYEYMGYIMEKEQAYTDAAFNYEMAWKHSNQTNPAVGYKLAFNYLKAKRYVDAIDVCHQVLEAHPTYPKIRKDILDKARASLRP
For the molecule B2, the binding result in assay [1] was “binds weakly”.

B3: His-tagged human TTC9c (protein, UniProt Q8N5M4-1 1-171)
chain: MEKRLQEAQLYKEEGNQRYREGKYRDAVSRYHRALLQLRGLDPSLPSPLPNLGPQGPALTPEQENILHTTQTDCYNNLAACLLQMEPVNYERVREYSQKVLERQPDNAKALYRAGVAFFHLQDYDQARHYLLAAVNRQPKDANVRRYLQLTQSELSSYHRKEKQLYLGMFG
Regarding B3, the binding result in assay [2] is on record as “binds”.

B4: His-tagged human TTC4 (protein, UniProt O95801 1-387)
chain: MEQPGQDPTSDDVMDSFLEKFQSQPYRGGFHEDQWEKEFEKVPLFMSRAPSEIDPRENPDLACLQSIIFDEERSPEEQAKTYKDEGNDYFKEKDYKKAVISYTEGLKKKCADPDLNAVLYTNRAAAQYYLGNFRSALNDVTAARKLKPCHLKAIIRGALCHLELKHFAEAVNWCDEGLQIDAKEKKLLEMRAKADKLKRIEQRDVRKANLKEKKERNQNEALLQAIKARNIRLSEAACEDEDSASEGLGELFLDGLSTENPHGARLSLDGQGRLSWPVLFLYPEYAQSDFISAFHEDSRFIDHLMVMFGETPSWDLEQKYCPDNLEVYFEDEDRAELYRVPAKSTLLQVLQHQRYFVKALTPAFLVCVGSSPFCKNFLRGRKVYQIR
B4: the binding entry in assay [2] is on record as “binds”.

Values taken from paper PMC4393279.
